The list shows only some results of the screen, not a fair sample: it is rich in T/C values a quarter to a half above the control, in often repeated tests (any T/C) and in doses without a T/C. Other doses and runs of a compound stand elsewhere. T/C: endpoint of the treated group in % of that of the vehicle group. Some doses have a count of surviving animals in place of a T/C: the source holds a T/C of zero for them, seemingly a mark for toxic or unscored doses. Some doses without a T/C left all or most animals alive at the check, yet need not have been tolerated: survival well below the control is almost never listed, so the zero probably covers shortened survival too. Counts of survivors are from the toxicity check (mostly the fifth day) where no day follows; animals may have died later. Schedule codes are those of the source, read here as Q, the interval in days (D) or hours (H), X, the number of doses. Some entries hold several experiments; their values stand side by side, smallest first. Where survival is the endpoint, this PubChem deposit counts one and a half times the control or more as active, and values a quarter to a half above the control carry no call in these data; other NCI protocols may use other cut-offs. Some T/C values are followed by the survivors on the day toxicity was checked, most often the fifth; without a count, all were alive then.
Test system: BDF1 mice, P388 leukemia ip, median survival T/C
Test: NCI In Vivo Anticancer Drug Screen. Data for tumor model P388 Leukemia (intraperitoneal) in B6D2F1 (BDF1) mice
Conditions: T/C endpoint: median survival time, higher T/C = longer survival
Procedure, shortened: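 Antitumour effect was judged in vivo: survival in drug-treated mice, normalised to that of vehicle-dosed controls, gives the reported T/C.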

[1] = dose: 400.0 mg/kg/injection, schedule: Q01DX009 (ip), vehicle: saline with Tween-80
[2] = dose: 50.0 mg/kg/injection, schedule: Q01DX009 (ip), vehicle: saline
[3] = dose: 100.0 mg/kg/injection, schedule: Q01DX009 (ip), vehicle: saline
[4] = dose: 200.0 mg/kg/injection, schedule: Q01DX009 (ip), vehicle: saline
[5] = dose: 400.0 mg/kg/injection, schedule: Q04DX003 (ip), vehicle: saline with Tween-80
[6] = dose: 50.0 mg/kg/injection, schedule: Q01DX009 (ip), vehicle: saline with Tween-80
[7] = dose: 200.0 mg/kg/injection, schedule: Q04DX002 (ip), vehicle: saline with Tween-80
[8] = dose: 400.0 mg/kg/injection, schedule: Q04DX002 (ip), vehicle: saline with Tween-80
[9] = dose: 100.0 mg/kg/injection, schedule: Q01DX009 (ip), vehicle: saline with Tween-80
[10] = dose: 200.0 mg/kg/injection, schedule: Q01DX009 (ip), vehicle: saline with Tween-80
[11] = dose: 100.0 mg/kg/injection, schedule: Q04DX003 (ip), vehicle: saline with Tween-80
[12] = dose: 200.0 mg/kg/injection, schedule: Q04DX003 (ip), vehicle: saline with Tween-80

`CCC(CO)NC(=O)/C=C/c1ccccc1Cl` (stereo unspecified) was tested, and the survivor count [1] was 3 of 6.

`COc1ccc(C2C=C(c3ccc4c(c3)OCO4)Oc3c2c(=O)oc2ccccc32)cc1OC` (stereo unspecified) was tested, and the survivor count (dose: 400.0 mg/kg/injection, schedule: Q01DX009 (ip), vehicle: water) was 5 of 6.

In the case of `NCCNCC[OH2+].NCCNCC[OH2+].[Cu+2].[O-][Cl+3]([O-])([O-])[O-]`, the survivor count [2] was 1 of 6 and 4 of 6, the survivor count [3] was 0 of 6 and the survivor count [4] was 0 of 6.

For `CC(=O)OCc1c(COC(C)=O)c(-c2ccccc2)n2c1CCC2`, the T/C (dose: 12.5 mg/kg/injection, schedule: Q01DX009 (ip), vehicle: Klucel (hydroxypropylcellulose) (HPC)) was 126 % of control and the T/C (dose: 25.0 mg/kg/injection, schedule: Q01DX009 (ip), vehicle: Klucel (hydroxypropylcellulose) (HPC)) was 133 % of control.

For `CCOC(=O)Nc1nc(Cl)c(Cl)nc1Cl`, the T/C (dose: 3.12 mg/kg/injection, schedule: Q01DX009 (ip), vehicle: water) was 135 % of control, the survivor count (dose: 6.25 mg/kg/injection, schedule: Q01DX009 (ip), vehicle: water) was 5 of 6 and the survivor count (dose: 12.5 mg/kg/injection, schedule: Q01DX009 (ip), vehicle: water) was 6 of 6. The survivor count (dose: 25.0 mg/kg/injection, schedule: Q01DX009 (ip), vehicle: water) was 5 of 6 and the T/C (dose: 25.0 mg/kg/injection, schedule: Q04DX003 (ip), vehicle: water) was 125 % of control.

`COC(=O)c1c(Cl)c(Cl)c(C(=O)OC)c(Cl)c1Cl` was tested, and the T/C [5] was 137 % of control.

`NNc1cc(N)[nH]n1` was tested, and the survivor count [4] was 1 of 6.

With `O=C1C(N2CCOCC2)=Cc2cccc3cccc1c23` the survivor count [6] was 5 of 6 and the survivor count [1] was 1 of 6.

For `O=C(Nc1nncs1)c1cccs1`, the T/C [7] was 134 % of control and the T/C [8] was 145 % of control.

In the case of `CC1=C(C)CC2C(=O)C=CC(=O)C2C1` (stereo unspecified), the survivor count (dose: 200.0 mg/kg/injection, schedule: Q01DX009 (ip), vehicle: water) was 5 of 6, the survivor count (dose: 200.0 mg/kg/injection, schedule: Q04DX003 (ip), vehicle: water) was 6 of 6 and the survivor count (dose: 400.0 mg/kg/injection, schedule: Q04DX003 (ip), vehicle: water) was 0 of 6.

`Cc1cc(N)c2cc(NC(=O)CCCCCC(=O)Nc3ccc4nc(C)cc(N)c4c3)ccc2n1` was tested, and the survivor count [9] was 0 of 6, the survivor count [10] was 0 of 6 and the survivor count [1] was 0 of 6.

With `CCOc1cccc(/C=N/n2c(-c3ccccc3Cl)nc3ccccc3c2=O)c1O` the survivor count [10] was 6 of 6.

With `Oc1c(Cl)cc(Cl)c2cccnc12` the survivor count (dose: 100.0 mg/kg/injection, schedule: Q01DX010 (ip), vehicle: carboxymethylcellulose (CMC)) was 2 of 6.

`Nc1ccc(/C=C/c2ccnc3ccccc23)cc1` was tested, and the survivor count [6] was 6 of 6, the survivor count [11] was 6 of 6 and the survivor count [12] was 0 of 6. For the same compound, the survivor count [5] was 0 of 6.

For `COc1cc(OC)c(N=Cc2ccc3c(c2)OCO3)cc1Cl`, the survivor count (dose: 400.0 mg/kg/injection, schedule: Q04DX003 (ip), vehicle: Klucel (hydroxypropylcellulose) (HPC)) was 6 of 6.

With `CC(=O)OCc1ccc(Cl)cc1` the T/C [10] was 137 % of control.

With `O=c1c2ccc(Cl)cc2[nH]c2ccc(Cl)cc12` the survivor count [12] was 2 of 6.

`CP(C)c1ccccc1` was tested, and the survivor count (dose: 200.0 mg/kg/injection, schedule: Q04DX003 (ip), vehicle: Klucel (hydroxypropylcellulose) (HPC)) was 0 of 6.

In the case of `CCOC(=O)CCC[P+](c1ccccc1)(c1ccccc1)c1ccccc1`, the T/C (dose: 8.8 mg/kg/injection, schedule: Q01DX009 (ip), vehicle: saline with Tween-80) was 140 % of control, the T/C (dose: 22.0 mg/kg/injection, schedule: Q01DX009 (ip), vehicle: saline with Tween-80) was 139 and 142 % of control and the T/C (dose: 33.0 mg/kg/injection, schedule: Q01DX009 (ip), vehicle: saline with Tween-80) was 136 and 143 % of control. For the same compound, the T/C (dose: 40.0 mg/kg/injection, schedule: Q01DX009 (ip), vehicle: saline with Tween-80) was 127 % of control, the T/C [6] was 131 and 142 % of control and the T/C (dose: 75.0 mg/kg/injection, schedule: Q01DX009 (ip), vehicle: saline with Tween-80) was 130 % of control [5 of 6 alive]. For the same compound, the T/C (dose: 80.0 mg/kg/injection, schedule: Q01DX009 (ip), vehicle: saline with Tween-80) was 126 % of control, the survivor count [10] was 4 of 6 and the survivor count [5] was 4 of 6.

In the case of `NNC12CC3CC(CC(C3)C1)C2`, the survivor count [2] was 0 of 6, the survivor count [3] was 0 of 6 and the survivor count (dose: 100.0 mg/kg/injection, schedule: Q04DX003 (ip), vehicle: saline) was 6 of 6.

With `OC(CC1CCCCN1)c1cc(C(F)(F)F)nc2c(C(F)(F)F)cccc12` (stereo unspecified) the survivor count [9] was 3 of 6 and the survivor count [10] was 0 of 6.

With `O=c1ccc2cc(-c3ccncc3)cnc2[nH]1` the survivor count [7] was 1 of 6 and the survivor count [8] was 1 of 6.

With `CC(C)CCCCCCCCCCCCC(=O)NCC(=O)NC1C(C)OC(Nc2ncnc3nc[nH]c23)C(O)C1O` (stereo unspecified) the T/C (dose: 720.0 micrograms/kg/injection, schedule: Q04DX003 (ip), vehicle: saline) was 127 % of control, the T/C (dose: 1200.0 micrograms/kg/injection, schedule: Q04DX003 (ip), vehicle: saline) was 133 % of control and the T/C (dose: 2000.0 micrograms/kg/injection, schedule: Q04DX003 (ip), vehicle: saline) was 125 % of control.

For `CC1CC(OC(=O)CCN2CC2)CC(C)(C)C1` (stereo unspecified), the survivor count (dose: 10.0 mg/kg/injection, schedule: Q04DX003 (ip), vehicle: Klucel (hydroxypropylcellulose) (HPC)) was 6 of 6.

For `C[C@]12CC[C@H](O)C[C@@H]1CC[C@@H]1[C@@H]2C(=O)C[C@@]2(C)[C@H]1CC[C@]2(O)C(=O)CBr`, the T/C (dose: 25.0 mg/kg/injection, schedule: Q01DX009 (ip), vehicle: saline with Tween-80) was 125 % of control, the T/C [6] was 131 and 137 % of control and the T/C [9] was 141 % of control. For the same compound, the survivor count [9] was 6 of 6 and the T/C (dose: 200.0 mg/kg/injection, schedule: Q01DX009 (ip), vehicle: Klucel (hydroxypropylcellulose) (HPC)) was 131 % of control.

`CN=C(NN(C)C)c1ccc(NC(=O)c2ccc(C(=O)Nc3ccc(C(=NC)NN(C)C)cc3)cc2)cc1` was tested, and the T/C (dose: 6.0 mg/kg/injection, schedule: Q01DX009 (ip), vehicle: saline with Tween-80) was 141 % of control.

In the case of `COc1ccc(CCNC(=O)Cc2ccc(OC)c(OC)c2)cc1OC`, the survivor count [9] was 6 of 6, the survivor count [10] was 6 of 6 and the survivor count [1] was 6 of 6.

In the case of `C=CCCCCCC/C=C\CCCCC`, the T/C (dose: 100.0 mg/kg/injection, schedule: Q01DX010 (ip), vehicle: alcohol) was 127 % of control [3 of 4 alive], the survivor count (dose: 200.0 mg/kg/injection, schedule: Q01DX010 (ip), vehicle: alcohol) was 1 of 4 and the survivor count (dose: 400.0 mg/kg/injection, schedule: Q01DX010 (ip), vehicle: alcohol) was 0 of 4.

For `CC(=O)OCC(OC(C)=O)C(OC(C)=O)C(OC(C)=O)C(C#N)OC(C)=O` (stereo unspecified), the T/C (dose: 300.0 mg/kg/injection, schedule: Q01DX009 (ip), vehicle: saline with Tween-80) was 130 % of control and the T/C [1] was 140 % of control.

For `CCCCCCC(=O)CCCCCCCCCCCCC(=O)OC`, the survivor count [11] was 6 of 6, the survivor count [12] was 5 of 6 and the survivor count [5] was 5 of 6.

From PubChem BioAssay AID328 (DTP/NCI, 2004)
